These are yes or no findings as the source states them, for the method shown. In cells and extracts the contact can be indirect. Some results given as binding are weak or reduced against the parent protein; the word gives no strength.
Experiments:
[1] = biological target: soluble DNA19355 polypeptide (ECD, His10-tagged, 125I-labeled) (human); test: summary of the co-precipitation and FACS assays
[2] = biological target: soluble DNA19355 polypeptide (ECD, His10-tagged, 125I-labeled) (human); test: co-precipitation with protein A-sepharose, SDS-PAGE, autoradiography

B1: PRO364-IgG (PRO364 extracellular domain immunoadhesin) (Fc fusion)
chain: QRPTGGPGCGPGRLLLGTGTDARCCRVHTTRCCRDYPGEECCSEWDCMCVQPEFHCGDPCCTTCRHHPCPPGQGVQSQGKFSFGFQCIDCASGTFSGGHEGHCKPWTDCTQFGFLTVFPGNKTHNAVCVPGSPPAE
notes: Expressed in insect cells with Baculovirus; also called PRO364 immunoadhesin; PRO364 ECD C-terminus IgG-Fc tagged form; not shown: IgG Fc fused at the C-terminus
binding [1]: binds | binding [2]: binds
